Results as given in PubChem BioAssay AID2517 (National Center for Advancing Translational Sciences (NCATS), 2010).
The campaign covered roughly 350,000 compounds. About 1,200 (0.34%) were called active. Inconclusive means that the source gave no clear call. Such entries were picked first, then a sample of the others. Calls follow the shape of the dose curve; as a rule, active = well fitted inhibition curve with a large enough effect; inconclusive = small, poorly fitted or top-dose-only effect; inactive = no such curve, though single readings can be large or run the other way. A potency beside an inconclusive call is a rough fit, not a confirmed value.

Amino acid sequences for entries named in this document (tags omitted).
UniProt P27695, whole entry, looked up: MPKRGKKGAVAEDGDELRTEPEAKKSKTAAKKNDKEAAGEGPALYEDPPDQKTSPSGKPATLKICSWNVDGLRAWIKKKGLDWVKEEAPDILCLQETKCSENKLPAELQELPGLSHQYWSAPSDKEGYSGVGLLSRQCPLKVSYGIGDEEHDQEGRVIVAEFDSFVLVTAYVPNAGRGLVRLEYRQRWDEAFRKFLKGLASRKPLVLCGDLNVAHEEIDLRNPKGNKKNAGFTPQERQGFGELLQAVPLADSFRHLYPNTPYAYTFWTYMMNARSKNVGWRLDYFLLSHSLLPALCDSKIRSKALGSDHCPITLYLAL

Biological target: DNA repair nuclease/redox regulator APEX1 (Homo sapiens) (UniProt P27695)
Assay: qHTS Assay for Inhibitors of the Human Apurinic/apyrimidinic Endonuclease 1 (APE1); also: nearly all actives have a fitted effect of over 55% in size;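 as to activity change, negative = inhibition: plate controls were vehicle for no effect and reference inhibitor for full effect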
Details: recombinant APE1, TAMRA/BHQ-2 abasic DNA cleavage fluorescence; activity change, negative = inhibition: at 65.8 µM (top of the series)
Procedure, shortened: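 APE1 at 0.75 nM preincubated 15 min at room temperature with compound. Reaction then started with 50 nM double-stranded THF-abasic substrate labelled with TAMRA/BHQ-2, and 525/598 nm fluorescence read kinetically. Activity taken as third-minus-first read difference, normalized to DMSO and NSC13755 controls.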
Potency is read from the fitted curve at half-maximal effect.

For `O=C(NCC1COc2ccccc2O1)C1CCCN(S(=O)(=O)c2cnc[nH]2)C1` (centres undefined), which Potency is on record?
The Potency was inconclusive: 44.7 µM [inhibitor, single point].

`CCCCCOC(=O)CSc1nc2c(c(=O)[nH]c(=O)n2C)n1CCc1ccccc1` was tested. Which Potency did it give?
Its Potency is inconclusive: 0.0282 µM [inhibitor, full curve].

For `Cc1ccc(S(=O)(=O)N2CCC(C(=O)C3C(=O)CC(C)(C)CC3=O)CC2)cc1`, which Potency is on record?
The Potency was inconclusive: 1.41 µM [inhibitor, full curve, poor fit].

For `Cc1ccc(C(C)C)c(OCCNC(=O)c2cncc(Br)c2)c1`, which Potency is on record?
The Potency was inconclusive: 50.1 µM [inhibitor, partial curve, poor fit].

Which Potency does the source give for `NNC(=O)CN1CCCc2ccccc21` here?
The Potency was inconclusive: 44.7 µM [inhibitor, single point].

With `NS(=O)(=O)c1ccc(CCNC(=O)c2cc3ccccc3s2)cc1` as the molecule, how does the Potency read?
Its Potency is inconclusive: 37.7 µM [inhibitor, single point].

`Oc1ccc(Cl)c2cccnc12` was tested. Which “activity change, negative = inhibition” value did it give?
Its value is inactive: -1.62%.

How did the Potency turn out when `COc1ccc(C=NNc2ccc(S(=O)(=O)Nc3ccccc3C(=O)O)cc2[N+](=O)[O-])c(OC)c1` was run?
The Potency was inconclusive: 29.9 µM [inhibitor, single point].

For `CC(=O)C1=C(O)CC(c2ccccc2)CC1=NCCc1c(C)[nH]c2ccc(C)cc12` (centres undefined), which Potency is on record?
Its Potency is inconclusive: 6.31 µM [inhibitor, single point].

For `CCCn1c(N)c(C(=O)CSc2nc3ncc(Cl)cc3[nH]2)c(=O)n(C)c1=O`, which Potency is on record?
Its Potency is inconclusive: 21.2 µM [inhibitor, single point].

How did the Potency turn out when `CCCCCCNS(=O)(=O)c1ccc(OC)c(OC)c1` was run?
Its Potency is inconclusive: 44.7 µM [inhibitor, single point].

`C[C@H](N)C(=O)N[C@@H](Cc1ccc(F)cc1)C(=O)N[C@@H](CCCN=C(N)N)C(=O)N[C@@H](CC1CCCCC1)C(=O)N[C@@H](CCCCN=C(N)N)C(=O)N[C@@H](Cc1ccc(O)cc1)C(N)=O` was tested. Which “activity change, negative = inhibition” value did it give?
The value was inactive: -0.112%.

Which “activity change, negative = inhibition” value does the source give for `O=C1C(C2=NC(c3ccccn3)C3C(=O)N(c4ccc(OC(F)(F)F)cc4)C(=O)C23)=C(O)c2ccccc21` (centres undefined) here?
Its value is inactive: -0.873%.

`COC(=O)[C@]1(Cc2ccccc2)N[C@H](CN(C)C(=O)Nc2ccc(F)cc2)[C@@H]2C(=O)N(Cc3ccccc3)C(=O)[C@@H]21` was tested. Which “activity change, negative = inhibition” value did it give?
The value was inactive: -5.65%.

How did the Potency turn out when `CCCN1C(=O)/C(=C/c2ccco2)SC1=Nc1ccc(OC)cc1` was run?
The Potency was inconclusive: 0.199 µM [inhibitor, full curve, poor fit].

For `CN1CCN(CCc2nc3cc(NC(=O)c4ccco4)ccc3n2C)CC1`, which Potency is on record?
Its Potency is inconclusive: 0.0045 µM [inhibitor, full curve, poor fit].

Which Potency does the source give for `O=C(CCSc1ccc(Cl)cc1)N1CCN(c2ncccn2)CC1` here?
Its Potency is inconclusive: 22.4 µM [inhibitor, single point].

With `Cc1cccc2nc(-c3cccc(NC(=O)c4ccc(Cl)cc4)c3)cn12` as the molecule, how does the Potency read?
Its Potency is inconclusive: 5.01 µM [inhibitor, full curve].

How did the “activity change, negative = inhibition” value turn out when `Cc1cc(C(=O)Cn2ncc(Cl)c(Cl)c2=O)c(C)n1CC(F)(F)F` was run?
The value was inactive: -2.27%.

For `Cc1ccc2oc(-c3cc(NC(=O)c4ncn[nH]4)ccc3O)nc2c1`, which “activity change, negative = inhibition” value is on record?
The value was inactive: -4.19%.

With `O=C(N/N=C1\CC2CC=CC12)c1ccc(O)cc1` (centres undefined) as the molecule, how does the “activity change, negative = inhibition” value read?
The value was inactive: 10.7%.

Which Potency does the source give for `Clc1ccccc1-c1cc(NCc2ccccc2)ncn1` here?
The Potency was inconclusive: 35.5 µM [inhibitor, single point].

Which Potency does the source give for `CC1(C)CC[C@]2(C(=O)O)CC[C@]3(C)C(=CCC4[C@@]5(C)CC[C@H](O)C(C)(C)C5CC[C@]43C)C2C1` (some centres undefined) here?
The Potency was inconclusive: 4.47 µM [inhibitor, partial curve].

Which Potency does the source give for `Cc1ccc(CN2CC(C(=O)Nc3nnc(SCc4c(Cl)cccc4Cl)s3)CC2=O)cc1` (centres undefined) here?
The Potency was inconclusive: 17.8 µM [inhibitor, single point].

Which Potency does the source give for `CCCC[C@]12Cc3cc(C#N)ccc3C(O1)c1c(cc(-c3ccccc3)oc1=O)O2` here?
Its Potency is inconclusive: 3.44 µM [inhibitor, single point].

Which Potency does the source give for `COCCn1nnnc1C(c1ccc(OC)c(OC)c1)N1CCc2ccccc21` (centres undefined) here?
The Potency was inconclusive: 50.1 µM [inhibitor, partial curve, poor fit].

`COC(=O)CCCC1=CC2=CC(=O)C(C)(OC(=O)c3cccs3)C(=O)C2=CO1` (centres undefined) was tested. Which Potency did it give?
The Potency was inconclusive: 44.7 µM [inhibitor, single point].

For `COC(=O)c1ccccc1OCCCN(C)C`, which Potency is on record?
The Potency was inconclusive: 0.794 µM [inhibitor, full curve, poor fit].

For `COc1ccc(C(=O)COC(=O)C(CCSC)NS(=O)(=O)c2ccc(Cl)cc2)cc1` (centres undefined), which Potency is on record?
Its Potency is inconclusive: 15.8 µM [inhibitor, partial curve, poor fit].

For `O=C(CSc1nnnn1C1CCCCC1)N1CCOCC1`, which Potency is on record?
Its Potency is inconclusive: 0.0032 µM [inhibitor, full curve].

With `COc1ccccc1CNC(=O)C1CCC(CNc2c(N3CCOCC3)c(=O)c2=O)CC1` (centres undefined) as the molecule, how does the Potency read?
The Potency was inconclusive: 25.1 µM [inhibitor, single point].

How did the Potency turn out when `Cc1cccc(NC(=S)NCc2cccs2)c1C` was run?
Its Potency is inconclusive: 3.16 µM [inhibitor, partial curve].

`CC(C)(C)OC(=O)NCCCCC1=CC2=CC(=O)C(C)(OC(=O)CCc3ccccc3)C(=O)C2=CO1` (centres undefined) was tested. Which “activity change, negative = inhibition” value did it give?
The value was inactive: -10.2%.

`CCc1nnc(NS(=O)(=O)c2ccc(NC(=S)NC(=O)/C=C/c3ccccc3)cc2)s1` was tested. Which Potency did it give?
The Potency was inconclusive: 35.5 µM [inhibitor, single point].

Which “activity change, negative = inhibition” value does the source give for `Cc1ccc(C(=O)c2nocc2C(=O)c2cccs2)cc1` here?
Its value is inactive: -2.87%.

How did the Potency turn out when `Cc1ccc(CNC(=O)[C@H]2C[C@@H]2[C@H](NP(=O)(c2ccccc2)c2ccccc2)c2ccccc2)o1` was run?
The Potency was inconclusive: 2.51 µM [inhibitor, partial curve, poor fit].

How did the Potency turn out when `CCOc1ccc2nc(SC3CC(=O)N(c4ccc(OC)cc4OC)C3=O)sc2c1` (centres undefined) was run?
Its Potency is inconclusive: 39.8 µM [inhibitor, single point].

How did the Potency turn out when `O=C(C1CCCN(S(=O)(=O)c2cccc3cccnc23)C1)N1CCc2ccccc21` (centres undefined) was run?
The Potency was inconclusive: 8.91 µM [inhibitor, partial curve].

Which Potency does the source give for `COc1ccc(COC(=O)c2ccc3c(=O)n4c(nc3c2)CCC4)cc1F` here?
Its Potency is inconclusive: 44.7 µM [inhibitor, single point].

`CCc1nc(Nc2ccncc2)c2oc3ccccc3c2n1` was tested. Which Potency did it give?
Its Potency is inconclusive: 12.6 µM [inhibitor, partial curve].

Which “activity change, negative = inhibition” value does the source give for `O=C1N(c2ccc(Cl)c(Cl)c2)CN(Cc2ccccc2)CN1n1cnnc1` here?
Its value is inactive: -2.47%.

For `CN1CCN(Cc2cc(=O)oc3ccc(Cl)cc23)CC1`, which Potency is on record?
Its Potency is inconclusive: 44.7 µM [inhibitor, single point].

With `CCCCOc1ccc(CN(CCO)CCO)cc1[N+](=O)[O-]` as the molecule, how does the Potency read?
The Potency was inconclusive: 0.251 µM [inhibitor, full curve, poor fit].

How did the Potency turn out when `COc1ccccc1N1CCN(C(=O)c2cc(C3CC3)on2)CC1` was run?
Its Potency is inconclusive: 44.7 µM [inhibitor, single point].

`CCOC(=O)N1CCC(NC(=O)C2=CCN(S(=O)(=O)c3ccc(F)cc3)CC2)CC1` was tested. Which Potency did it give?
Its Potency is inconclusive: 0.005 µM [inhibitor, full curve, poor fit].

For `Cc1cc(-c2n[nH]c(=S)n2/N=C/C=C/c2ccco2)n[nH]1`, which Potency is on record?
Its Potency is inconclusive: 39.8 µM [inhibitor, single point].

`O=C(Nc1ccc2nc(C3CC3)n(Cc3ccc(F)cc3)c(=O)c2c1)c1ccco1` was tested. Which Potency did it give?
Its Potency is inconclusive: 22.4 µM [inhibitor, single point].

`NC(=O)Cn1c(=O)n(Cc2ccco2)c(=O)c2c3c(sc21)CCCCC3` was tested. Which Potency did it give?
Its Potency is inconclusive: 31.6 µM [inhibitor, partial curve].

`O=C(CN1C(=O)C2CCCCC2C1=O)Nc1nc(-c2ccccn2)cs1` (centres undefined) was tested. Which “activity change, negative = inhibition” value did it give?
Its value is inactive: 4.34%.

How did the “activity change, negative = inhibition” value turn out when `O=S(=O)([O-])CCC[n+]1c(SCCCS(=O)(=O)O)sc2ccc(Cl)cc21` was run?
Its value is inactive: 5.59%.

Which Potency does the source give for `CS(=O)(=O)N(CC(=O)N/N=C/c1cccc2c1OCCO2)c1ccccc1Br` here?
The Potency was inconclusive: 1.78 µM [inhibitor, full curve, poor fit].

Which Potency does the source give for `C/C(CC(=O)Nc1ccc([N+](=O)[O-])cc1)=N\NC(=O)c1ccccc1[N+](=O)[O-]` here?
Its Potency is inconclusive: 29.9 µM [inhibitor, single point].

`O=C(COc1ccc(Br)cc1)Nc1ccc(C(=O)Nc2ccccc2C(=O)O)cc1` was tested. Which Potency did it give?
The Potency was inconclusive: 37.7 µM [inhibitor, single point].

Which Potency does the source give for `Cc1ccc(NC(=O)c2sc(=S)n(-c3cc(C)ccc3F)c2N)cc1` here?
Its Potency is inconclusive: 12.6 µM [inhibitor, partial curve, poor fit].

How did the “activity change, negative = inhibition” value turn out when `COCc1cc(=O)oc2cc(NC(=O)c3ccc(C(C)(C)C)cc3)ccc12` was run?
The value was inactive: 11.7%.

With `COc1ccc(CNC(=O)COC(=O)c2n[nH]c3ccccc23)cc1OC` as the molecule, how does the Potency read?
Its Potency is inconclusive: 8.91 µM [inhibitor, full curve].

`CN(C)C(=O)c1ccc(-c2nc(Nc3ccncc3)c3ccccc3n2)cc1` was tested. Which “activity change, negative = inhibition” value did it give?
The value was inactive: 7.02%.

Which Potency does the source give for `COc1cc(O)c(C(=O)/C=C/c2ccccc2)c(O)c1` here?
The Potency was inconclusive: 7.94 µM [inhibitor, single point].

`COc1ccc(CCN2CNc3c(c(=O)n(C)c(=O)n3C)C2)cc1OC` was tested. Which Potency did it give?
The Potency was inconclusive: 8.91 µM [inhibitor, single point].

For `COc1c(O)cc2c(c1O)C(=O)CC(c1ccccc1)O2` (centres undefined), which Potency is on record?
The Potency was active: 25.1 µM.

How did the “activity change, negative = inhibition” value turn out when `CC/C(=C/c1sc2ccc(C)cc2[n+]1CCCS(=O)(=O)[O-])SC` was run?
Its value is inactive: -10.3%.

For `c1cc2c3c(cccc3c1)NC1(CCCCC1)N2`, which “activity change, negative = inhibition” value is on record?
The value was inactive: -0.116%.

`CC(=O)C(C(C)=O)C(NC(=O)c1cccnc1)(C(F)(F)F)C(F)(F)F` was tested. Which “activity change, negative = inhibition” value did it give?
The value was inactive: 3.42%.
